Experimental data reported in PMC11784016.
These are yes or no findings as the source states them, for the method shown. In cells and extracts the contact can be indirect. Some binding calls cover weakened binding; strength is not graded here.

Sequences of proteins named here, by UniProt entry; tags and fusion partners are left off. A change or cut given only in a name is not applied to a line headed by its entry.
UniProt Q9HC16: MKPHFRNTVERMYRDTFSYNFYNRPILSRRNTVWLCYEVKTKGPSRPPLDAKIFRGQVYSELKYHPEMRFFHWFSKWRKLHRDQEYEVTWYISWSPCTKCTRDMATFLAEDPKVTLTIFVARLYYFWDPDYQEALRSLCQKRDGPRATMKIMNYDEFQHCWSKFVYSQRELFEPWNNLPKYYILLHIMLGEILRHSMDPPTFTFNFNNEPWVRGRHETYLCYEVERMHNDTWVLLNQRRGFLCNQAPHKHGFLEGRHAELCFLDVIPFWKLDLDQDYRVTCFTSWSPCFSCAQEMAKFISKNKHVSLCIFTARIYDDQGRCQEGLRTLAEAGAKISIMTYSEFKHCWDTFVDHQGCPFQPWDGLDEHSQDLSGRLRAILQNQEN
UniProt Q8IUX4: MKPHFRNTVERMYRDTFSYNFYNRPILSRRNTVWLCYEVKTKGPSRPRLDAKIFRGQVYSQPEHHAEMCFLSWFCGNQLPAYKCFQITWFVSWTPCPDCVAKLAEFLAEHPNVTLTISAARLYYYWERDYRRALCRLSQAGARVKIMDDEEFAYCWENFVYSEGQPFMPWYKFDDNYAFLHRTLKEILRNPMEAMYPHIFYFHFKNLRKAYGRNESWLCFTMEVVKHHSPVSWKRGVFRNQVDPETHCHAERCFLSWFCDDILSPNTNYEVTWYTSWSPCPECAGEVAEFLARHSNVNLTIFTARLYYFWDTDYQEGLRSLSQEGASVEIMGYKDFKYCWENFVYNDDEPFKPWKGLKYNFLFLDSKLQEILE

How the values were obtained:
[1] = target: APOBEC3G with C-terminal triple HA tag (pcDNA3.1-APOBEC3G-HA) (human) (UniProt Q9HC16); experiment: co-IP; 293T cells co-transfected; 400 ug of cell lysate on anti-HA magnetic beads with RNaseA (50 ug/mL), 2 h at 4 C; co-IP buffer 50 mM Tris-Cl pH 7.4, 1% Nonidet-P40, 10% glycerol, 150 mM NaCl; immunoblot with anti-HA and anti-V5 or anti-Flag; band intensities normalised to the immunoprecipitated protein, full-length protein set to 100%
[2] = target: APOBEC3F-HA (pcDNA3.1 A3F-HA) (human) (UniProt Q8IUX4); experiment: as above

Substance: APOBEC3F-V5 (pVIVO2 A3F-V5) (from UniProt Q8IUX4 1-373) (enzyme)
- binding [1]: binds

Substance: APOBEC3G, Flag-tagged (pcDNA3.1 A3G-Flag) (from UniProt Q9HC16 1-384) (enzyme)
- binding [2]: binds
